According to the supplement of paper PMC4604168 (melanoma cell lines):
The list shows a part of the results. Many values rest on one well or one pass, so single values are uncertain.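 The apoptosis fraction was the count of cleaved-PARP antibody-stained nuclei relative to all DNA-stained nuclei, imaged in 1,536-well plates. Screening doses were set so most cells survived, and baseline and induced cleaved-PARP levels vary greatly across cell lines.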

Legend:
Assay in all cases: cleaved PARP positive nuclei fraction relative to DMSO control; melanoma cells; higher = more apoptosis
Conditions in all cases: library dose: low library concentration; 72 h
[1] = test system: 501Mel
[2] = test system: A101D
[3] = test system: A2058
[4] = test system: A375
[5] = test system: C32
[6] = test system: CBRC013 (line from a melanoma biopsy)
[7] = test system: CBRC014 (line from a melanoma biopsy)
[8] = test system: CBRC016 (line from a melanoma biopsy)
[9] = test system: CBRC017 (line from a melanoma biopsy)
[10] = test system: CBRC034 (line from a melanoma biopsy)
[11] = test system: COLO792
[12] = test system: COLO800
[13] = test system: COLO829
[14] = test system: G361
[15] = test system: IPC-298
[16] = test system: IST-MEL1
[17] = test system: LB2518-MEL
[18] = test system: LOXIMVI

SMILES	cleaved PARP positive nuclei fraction [1] [%]	cleaved PARP positive nuclei fraction [2] [%]	cleaved PARP positive nuclei fraction [3] [%]	cleaved PARP positive nuclei fraction [4] [%]	cleaved PARP positive nuclei fraction [5] [%]	cleaved PARP positive nuclei fraction [6] [%]	cleaved PARP positive nuclei fraction [7] [%]	cleaved PARP positive nuclei fraction [8] [%]	cleaved PARP positive nuclei fraction [9] [%]	cleaved PARP positive nuclei fraction [10] [%]	cleaved PARP positive nuclei fraction [11] [%]	cleaved PARP positive nuclei fraction [12] [%]	cleaved PARP positive nuclei fraction [13] [%]	cleaved PARP positive nuclei fraction [14] [%]	cleaved PARP positive nuclei fraction [15] [%]	cleaved PARP positive nuclei fraction [16] [%]	cleaved PARP positive nuclei fraction [17] [%]	cleaved PARP positive nuclei fraction [18] [%]
Cc1cc(N2CCOCC2)cc2[nH]c(-c3c(NC[C@@H](O)c4cccc(Cl)c4)cc[nH]c3=O)nc12 + O=C(O)C(=O)Nc1sc2c(c1C(=O)O)CCNC2 [TCS401] (first compound 0.2 µM, partner dose 1.66667 µM)	233	304	52.2	192	43.1	786	79.9	60.2	63.1	172	64.2	196	107	60.3	94.3	83.3	84.2	45.9
NC(=O)Nc1cc(-c2cccc(F)c2)sc1C(=O)N[C@H]1CCCNC1 + O=C1NC(=O)/C(=C/c2ccc(-c3ccc(F)cc3O)o2)S1 [AS252424] (first compound 0.02 µM, partner dose 1 µM)	112	140	44.9	237	361	49.1	101	74	91.7	78.4	87.8	126	138	45.8	36.6	25.5	59.9	62.5
Nc1cccc2c1CN(C1CCC(=O)NC1=O)C2=O (centres undefined) [lenalidomide] + COc1ccc(-c2ccc3c(N4CCOCC4)nc(N4C[C@@H](C)O[C@@H](C)C4)nc3n2)cc1CO [KU0063794] (first compound 1 µM, partner dose 0.02 µM)	43.4	56.6	59.5	110	57.7	216	86.3	42.4	47.4	99.3	128	139	64.7	138	130	344	79.3	71.1
Nc1cccc2c1CN(C1CCC(=O)NC1=O)C2=O (centres undefined) [lenalidomide] + CCN(CC)CCCCNc1ncc2cc(-c3cc(OC)cc(OC)c3)c(NC(=O)NC(C)(C)C)nc2n1 [PD173074] (first compound 1 µM, partner dose 0.1 µM)	147	189	125	188	169	96.9	106	38.8	86.7	58	149	94.2	110	51.8	80.5	36.1	51.9	62.8
O=C(Nc1cccc(Cl)c1)Nc1ncc(CCNc2ncnc3ccsc23)s1 + COc1ccc(COc2ccc(Cc3cnc(N)nc3N)cc2OC)cc1 [GW2580] (first compound 0.0008 µM, partner dose 1 µM)	51.9	102	55.1	111	193	106	92.7	134	95.4	94.7	107	134	92.4	105	128	95.2	94.7	36.2
Cn1c(Nc2ccc(C(F)(F)F)cc2)nc2cc(Oc3ccnc(-c4ncc(C(F)(F)F)[nH]4)c3)ccc21 + Cn1cc(/C=C2\C(=O)Nc3cccnc32)c2ccccc21 [GW441756] (first compound 0.08 µM, partner dose 0.4 µM)	243	514	195	329	79.1	275	101	93.7	48.9	98	478	135	122	244	118	36.4	72.4	58.1
CO[C@@H]1[C@H](N(C)C(=O)c2ccccc2)C[C@H]2O[C@]1(C)n1c3ccccc3c3c4c(c5c6ccccc6n2c5c31)C(=O)NC4 [Midostaurin] + CC(C)CCN1c2nc(Nc3cc(F)c(O)c(F)c3)ncc2N(C)C(=O)C1C [BID1870] (first compound 0.08 µM, partner dose 0.2 µM)	89	71.2	262	94.2	46.6	218	140	128	81.8	174	168	122	118	53.7	117	118	87	159
Cn1c(Nc2ccc(C(F)(F)F)cc2)nc2cc(Oc3ccnc(-c4ncc(C(F)(F)F)[nH]4)c3)ccc21 + Oc1cc(-c2nc(-c3ccccc3)[nH]c2-c2ccncc2)ccc1Cl [L779450] (first compound 0.08 µM, partner dose 0.2 µM)	140	100	130	365	79.5	238	120	168	126	108	169	65.2	108	466	157	218	194	71.1
C[C@]1(c2nc3c(C(N)=O)cccc3[nH]2)CCCN1 [Veliparib] + CCN(CC)CCCCNc1ncc2cc(-c3cc(OC)cc(OC)c3)c(NC(=O)NC(C)(C)C)nc2n1 [PD173074] (first compound 1.4 µM, partner dose 0.1 µM)	72.1	96.3	109	99.4	127	127	98.6	66.2	90.1	86.2	42.3	116	41	106	85.7	91.7	91.5	26.9
Cn1c(Nc2ccc(C(F)(F)F)cc2)nc2cc(Oc3ccnc(-c4ncc(C(F)(F)F)[nH]4)c3)ccc21 + Cc1cc([N+](=O)[O-])ccc1NS(=O)(=O)c1cc(Cl)ccc1Cl [FH535] (first compound 0.08 µM, partner dose 1 µM)	113	238	166	595	254	127	156	1310	667	564	445	151	111	359	72.6	113	356	1790
CC1(C)NC(=O)N(c2ccc([N+](=O)[O-])c(C(F)(F)F)c2)C1=O [nilutamide] + CCCCCCCCCCCC1=C(O)C(=O)C=C(O)C1=O [Embelin] (first compound 1 µM, partner dose 1.2 µM)	63.4	56.8	73	74.6	53.2	84.1	107	46	74.5	101	81.2	113	59.6	115	42	42.6	84.1	79.4
C[C@@H]1CCN(C(=O)CC#N)C[C@@H]1N(C)c1ncnc2[nH]ccc12 + CC(C)CCN1c2nc(Nc3cc(F)c(O)c(F)c3)ncc2N(C)C(=O)C1C [BID1870] (first compound 1 µM, partner dose 0.2 µM)	147	234	90.7	50.7	50.4	33	91.2	117	140	48	68.7	510	123	97.2	97	88.3	72.8	56.4
OCCn1cc(-c2cnc3nnn(Cc4ccc5ncccc5c4)c3n2)cn1 + COc1cc(N2CCC(N3CCN(C)CC3)CC2)ccc1Nc1ncc(Cl)c(Nc2ccccc2S(=O)(=O)C(C)C)n1 [NVP-TAE684] (first compound 1 µM, partner dose 0.08 µM)	55.2	161	168	315	135	121	215	84.4	85.3	85	122	264	138	74.9	36.2	89.7	104	44.2
CO[C@@H]1[C@H](N(C)C(=O)c2ccccc2)C[C@H]2O[C@]1(C)n1c3ccccc3c3c4c(c5c6ccccc6n2c5c31)C(=O)NC4 [Midostaurin] + Oc1nc(-c2ccc(C(F)(F)F)cc2)nc2c1CSCC2 [XAV939] (first compound 0.08 µM, partner dose 2 µM)	98.4	327	96.7	52.2	134	79.4	102	108	63.5	60.7	163	68	71	104	84.3	28.4	88	57
Cc1ccc(NC(=O)c2cccc(N(C)C)c2)cc1NC(=O)c1ccc(O)cc1 + CCCCCCCCCCCC1=C(O)C(=O)C=C(O)C1=O [Embelin] (first compound 2 µM, partner dose 1.2 µM)	93.5	141	25	26.7	132	134	123	64.6	71.7	48.2	106	26.9	143	77.3	76.9	108	203	105
C=CCn1c(=O)c2cnc(Nc3ccc(N4CCN(C)CC4)cc3)nc2n1-c1cccc(C(C)(C)O)n1 + N#Cc1c(O)c2c(-c3ccc(-c4ccccc4O)cc3)csc2[nH]c1=O [A769662] (first compound 0.02 µM, partner dose 2 µM)	76.6	64.7	133	128	108	481	111	38.1	95.5	116	158	97.5	100	121	68.5	174	95.7	70
Cn1cncc1[C@@](N)(c1ccc(Cl)cc1)c1ccc2c(c1)c(-c1cccc(Cl)c1)cc(=O)n2C [tipifarnib] + CCN(CC)CCCCNc1ncc2cc(-c3cc(OC)cc(OC)c3)c(NC(=O)NC(C)(C)C)nc2n1 [PD173074] (first compound 0.01 µM, partner dose 0.1 µM)	140	236	105	44.9	62.4	506	103	92	77.7	90.5	46.2	142	94.2	115	54.4	46.4	236	42.5
O=C(CCCCCCC(=O)Nc1ccccc1)NO [vorinostat] + COc1ccc(COc2ccc(Cc3cnc(N)nc3N)cc2OC)cc1 [GW2580] (first compound 0.08 µM, partner dose 1 µM)	182	95.8	132	48.6	125	138	87.7	74.2	85.8	44	115	84.1	96	71.3	26.4	95.5	84.4	80.1

Two entries from above in a different format:

| SMILES | cleaved PARP positive nuclei fraction [1] [%] | cleaved PARP positive nuclei fraction [2] [%] | cleaved PARP positive nuclei fraction [3] [%] | cleaved PARP positive nuclei fraction [4] [%] | cleaved PARP positive nuclei fraction [5] [%] | cleaved PARP positive nuclei fraction [6] [%] | cleaved PARP positive nuclei fraction [7] [%] | cleaved PARP positive nuclei fraction [8] [%] | cleaved PARP positive nuclei fraction [9] [%] | cleaved PARP positive nuclei fraction [10] [%] | cleaved PARP positive nuclei fraction [11] [%] | cleaved PARP positive nuclei fraction [12] [%] | cleaved PARP positive nuclei fraction [13] [%] | cleaved PARP positive nuclei fraction [14] [%] | cleaved PARP positive nuclei fraction [15] [%] | cleaved PARP positive nuclei fraction [16] [%] | cleaved PARP positive nuclei fraction [17] [%] | cleaved PARP positive nuclei fraction [18] [%] |
| --- | --- | --- | --- | --- | --- | --- | --- | --- | --- | --- | --- | --- | --- | --- | --- | --- | --- | --- |
| O=C(Nc1cccc(Cl)c1)Nc1ncc(CCNc2ncnc3ccsc23)s1 + COc1ccc(COc2ccc(Cc3cnc(N)nc3N)cc2OC)cc1 [GW2580] (first compound 0.0008 µM, partner dose 1 µM) | 51.9 | 102 | 55.1 | 111 | 193 | 106 | 92.7 | 134 | 95.4 | 94.7 | 107 | 134 | 92.4 | 105 | 128 | 95.2 | 94.7 | 36.2 |
| Cn1c(Nc2ccc(C(F)(F)F)cc2)nc2cc(Oc3ccnc(-c4ncc(C(F)(F)F)[nH]4)c3)ccc21 + Cn1cc(/C=C2\C(=O)Nc3cccnc32)c2ccccc21 [GW441756] (first compound 0.08 µM, partner dose 0.4 µM) | 243 | 514 | 195 | 329 | 79.1 | 275 | 101 | 93.7 | 48.9 | 98 | 478 | 135 | 122 | 244 | 118 | 36.4 | 72.4 | 58.1 |
